Here are results for seven sequences from article PMC11784345.

The exact form of at least one protein or probe is not confirmed. No signal at the amounts used counts as a negative. A weaker result is weaker than the reference pair of the same experiment. For some assays here: At least one verdict was read from the data and is not stated in words by the source.

The subject of series [1] is MBP-His8-MilO. Description: EMSA. Particulars: EMSA: 20 mM Tris-HCl pH 8.0, 100 mM KCl, 2.5 mM MgCl2, 0.2 mM DTT, 10% glycerol, salmon sperm DNA, 30 C 10 min (Fig 5 legend: room temperature); recombinant protein; protein details: N-terminal MBP-His8; label: 5'-FAM on bottom strand. On the technique in general: In EMSA bound probe runs differently from free probe, usually more slowly.

The subject of series [2] is MBP-His8-MilO. Description: fluorescence polarization. Conditions: FP: 20 mM Tris pH 8.0, 50 mM KCl, 2.5 mM MgCl2, 0.2 mM DTT, 0.02 ug/uL salmon sperm DNA, 5% glycerol, 5 nM probe; recombinant protein; protein details: N-terminal MBP-His8; label: 5'-FAM on bottom strand.

On to “CACTATTTAATCGTATTATCTAACGGTGTCCGCCGGTGCCCCGG (double strand) [OBSM4]”, for which the binding result with MBP-His8-MilO [1] and in the series with MBP-His8-MilO [2] was “binds more weakly” each time.

In the case of “TGTCGCCCGGTCGTATTATCTAACGGTGTCCGCCGGTGCCCCGG (double strand) [OBSM2]”, in the series on MBP-His8-MilO [1], the binding result is “binds more weakly”. With “TGTCGCCCGGTCGTATTATCTAACGGCGCCTATCAACGCCCCGG (double strand) [OBSM5]”, the binding result in the series on MBP-His8-MilO [1] and in the series with MBP-His8-MilO [2] was “binds more weakly” each time. Consider “CACTATTTAATCGTGTCGCTCGGTGGTGTCCGCCGGTGCCCCGG (double strand) [OBSM1]”, for which the binding result in the series on MBP-His8-MilO [1] is given as “binds more weakly”.

For “TGTCGCCCGGTCGTGTCGCTCGGTGGCGCCTATCAACGCCCCGG (double strand) [OBSM3]”, the binding result with MBP-His8-MilO [1] is reported as “binds more weakly”.

On to “CACTATTTAATCGTATTATCTAACGGCGCCTATCAACATCCCGG (double strand) [OBSM7]”, for which the binding result with MBP-His8-MilO [1] and in the series with MBP-His8-MilO [2] was “no binding” throughout. As for “CACTATTTAATCGTGTCGCTCGGTGGCGCCTATCAACGCCCCGG (double strand) [OBSM6]”, the binding result in the series on MBP-His8-MilO [1] and in the series with MBP-His8-MilO [2] was “binds more weakly” each time.
